In the supplement of paper PMC10849652:
The other results are listed elsewhere or left out.

The chains behind the UniProt entries cited, without tags or fusion partners. Where a name states a change or a piece, a line headed by the entry shows the natural chain unless it says otherwise.
UniProt Q15637: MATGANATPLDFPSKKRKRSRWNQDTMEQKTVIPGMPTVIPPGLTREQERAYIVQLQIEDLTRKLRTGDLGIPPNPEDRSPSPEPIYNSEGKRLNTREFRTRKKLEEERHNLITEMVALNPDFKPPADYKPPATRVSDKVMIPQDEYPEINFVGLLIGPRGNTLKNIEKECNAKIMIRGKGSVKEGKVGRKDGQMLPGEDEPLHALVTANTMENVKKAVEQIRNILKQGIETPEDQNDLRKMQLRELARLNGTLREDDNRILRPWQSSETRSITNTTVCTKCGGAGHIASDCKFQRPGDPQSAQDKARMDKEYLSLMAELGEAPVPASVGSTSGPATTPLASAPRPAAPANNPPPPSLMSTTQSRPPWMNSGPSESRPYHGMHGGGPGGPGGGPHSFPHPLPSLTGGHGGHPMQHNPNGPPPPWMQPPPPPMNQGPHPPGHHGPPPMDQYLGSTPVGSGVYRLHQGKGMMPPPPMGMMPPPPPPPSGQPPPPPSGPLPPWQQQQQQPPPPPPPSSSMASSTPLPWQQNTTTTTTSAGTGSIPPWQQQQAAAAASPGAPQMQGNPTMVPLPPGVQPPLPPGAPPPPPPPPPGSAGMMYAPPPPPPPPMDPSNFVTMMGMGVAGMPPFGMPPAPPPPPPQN
UniProt Q15758: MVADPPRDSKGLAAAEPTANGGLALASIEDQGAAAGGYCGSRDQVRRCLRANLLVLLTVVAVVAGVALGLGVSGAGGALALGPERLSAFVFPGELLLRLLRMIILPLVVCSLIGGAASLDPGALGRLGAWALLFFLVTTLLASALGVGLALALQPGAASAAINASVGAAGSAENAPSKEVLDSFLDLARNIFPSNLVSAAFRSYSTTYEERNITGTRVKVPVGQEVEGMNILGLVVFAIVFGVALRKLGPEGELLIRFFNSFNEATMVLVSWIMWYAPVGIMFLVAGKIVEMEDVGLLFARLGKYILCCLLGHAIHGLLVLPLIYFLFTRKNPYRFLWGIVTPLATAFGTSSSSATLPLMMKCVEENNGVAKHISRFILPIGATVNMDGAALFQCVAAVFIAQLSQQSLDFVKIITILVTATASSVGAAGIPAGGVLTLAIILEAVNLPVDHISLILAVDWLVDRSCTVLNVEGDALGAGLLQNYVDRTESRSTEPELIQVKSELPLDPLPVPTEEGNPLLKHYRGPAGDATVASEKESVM
UniProt P43007: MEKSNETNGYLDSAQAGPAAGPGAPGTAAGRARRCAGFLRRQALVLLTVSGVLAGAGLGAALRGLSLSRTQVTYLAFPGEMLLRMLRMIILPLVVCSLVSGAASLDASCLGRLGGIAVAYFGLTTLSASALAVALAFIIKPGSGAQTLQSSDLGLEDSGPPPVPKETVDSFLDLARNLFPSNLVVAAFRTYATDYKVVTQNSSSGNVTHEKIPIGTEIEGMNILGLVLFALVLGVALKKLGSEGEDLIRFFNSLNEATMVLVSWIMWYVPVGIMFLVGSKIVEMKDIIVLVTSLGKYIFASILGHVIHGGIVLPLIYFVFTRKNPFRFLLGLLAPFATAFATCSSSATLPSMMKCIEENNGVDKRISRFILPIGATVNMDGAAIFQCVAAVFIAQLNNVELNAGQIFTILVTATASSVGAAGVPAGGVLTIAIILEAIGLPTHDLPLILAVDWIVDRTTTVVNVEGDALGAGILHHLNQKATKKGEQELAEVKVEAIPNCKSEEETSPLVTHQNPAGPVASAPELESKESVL
UniProt P41440: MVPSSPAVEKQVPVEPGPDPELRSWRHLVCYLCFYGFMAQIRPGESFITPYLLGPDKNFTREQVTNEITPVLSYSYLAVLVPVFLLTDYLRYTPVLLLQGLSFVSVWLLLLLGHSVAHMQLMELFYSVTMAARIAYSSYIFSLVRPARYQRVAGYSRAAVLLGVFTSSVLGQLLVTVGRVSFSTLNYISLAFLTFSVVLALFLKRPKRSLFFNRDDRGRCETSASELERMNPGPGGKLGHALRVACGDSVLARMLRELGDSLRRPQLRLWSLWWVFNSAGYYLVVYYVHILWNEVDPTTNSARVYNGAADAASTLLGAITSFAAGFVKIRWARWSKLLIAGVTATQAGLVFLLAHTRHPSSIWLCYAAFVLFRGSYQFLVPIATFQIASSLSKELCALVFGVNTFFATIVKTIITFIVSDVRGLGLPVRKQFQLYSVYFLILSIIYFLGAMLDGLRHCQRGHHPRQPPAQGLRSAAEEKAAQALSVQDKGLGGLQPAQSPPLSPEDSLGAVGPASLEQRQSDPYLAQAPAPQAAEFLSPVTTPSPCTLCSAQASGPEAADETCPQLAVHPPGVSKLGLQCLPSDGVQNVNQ
UniProt P36955: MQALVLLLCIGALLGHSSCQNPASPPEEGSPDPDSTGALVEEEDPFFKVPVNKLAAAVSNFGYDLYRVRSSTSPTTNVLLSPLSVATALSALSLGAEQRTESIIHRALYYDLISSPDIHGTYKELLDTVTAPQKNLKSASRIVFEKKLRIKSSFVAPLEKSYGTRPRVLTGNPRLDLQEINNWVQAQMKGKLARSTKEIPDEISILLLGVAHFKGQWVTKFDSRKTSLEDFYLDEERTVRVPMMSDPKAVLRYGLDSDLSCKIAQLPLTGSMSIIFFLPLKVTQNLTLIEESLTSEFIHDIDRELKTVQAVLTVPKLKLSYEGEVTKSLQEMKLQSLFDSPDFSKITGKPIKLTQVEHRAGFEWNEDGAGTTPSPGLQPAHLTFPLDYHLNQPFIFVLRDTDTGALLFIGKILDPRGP
UniProt Q9UJC5: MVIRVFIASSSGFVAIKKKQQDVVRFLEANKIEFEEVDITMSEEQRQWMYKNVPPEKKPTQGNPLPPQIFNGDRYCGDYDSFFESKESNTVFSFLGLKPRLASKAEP
UniProt A0MZ66, whole entry, looked up: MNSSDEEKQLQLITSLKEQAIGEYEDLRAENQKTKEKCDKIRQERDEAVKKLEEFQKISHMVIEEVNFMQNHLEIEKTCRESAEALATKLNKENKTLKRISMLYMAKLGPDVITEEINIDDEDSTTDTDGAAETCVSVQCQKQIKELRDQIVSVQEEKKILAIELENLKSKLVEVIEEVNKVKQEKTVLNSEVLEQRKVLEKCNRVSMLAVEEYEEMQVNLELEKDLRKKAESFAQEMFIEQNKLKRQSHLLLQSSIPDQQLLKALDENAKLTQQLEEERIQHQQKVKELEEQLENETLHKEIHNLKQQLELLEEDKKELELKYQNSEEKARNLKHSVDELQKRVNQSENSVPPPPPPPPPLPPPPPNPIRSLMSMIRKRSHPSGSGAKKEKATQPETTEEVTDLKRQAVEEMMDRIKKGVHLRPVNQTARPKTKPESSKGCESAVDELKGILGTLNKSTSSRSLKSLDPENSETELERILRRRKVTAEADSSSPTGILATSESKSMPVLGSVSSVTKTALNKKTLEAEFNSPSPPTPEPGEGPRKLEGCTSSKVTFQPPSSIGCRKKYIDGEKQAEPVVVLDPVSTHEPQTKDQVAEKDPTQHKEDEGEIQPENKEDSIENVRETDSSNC
UniProt Q9UQ13: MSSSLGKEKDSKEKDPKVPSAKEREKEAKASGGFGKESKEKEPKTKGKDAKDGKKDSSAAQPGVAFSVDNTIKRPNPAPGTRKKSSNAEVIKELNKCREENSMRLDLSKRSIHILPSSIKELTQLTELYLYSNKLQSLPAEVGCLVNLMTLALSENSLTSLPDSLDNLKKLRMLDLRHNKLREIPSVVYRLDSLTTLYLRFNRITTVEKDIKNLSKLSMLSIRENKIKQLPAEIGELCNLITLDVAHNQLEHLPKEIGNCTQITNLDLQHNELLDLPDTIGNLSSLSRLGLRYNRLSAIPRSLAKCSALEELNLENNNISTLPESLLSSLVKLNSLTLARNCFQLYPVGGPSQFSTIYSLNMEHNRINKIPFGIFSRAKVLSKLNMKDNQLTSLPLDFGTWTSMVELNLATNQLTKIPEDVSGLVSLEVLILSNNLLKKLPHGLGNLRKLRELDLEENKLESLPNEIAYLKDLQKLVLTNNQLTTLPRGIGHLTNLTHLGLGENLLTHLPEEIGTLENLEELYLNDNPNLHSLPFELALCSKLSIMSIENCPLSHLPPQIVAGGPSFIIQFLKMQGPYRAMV
UniProt Q96NB2: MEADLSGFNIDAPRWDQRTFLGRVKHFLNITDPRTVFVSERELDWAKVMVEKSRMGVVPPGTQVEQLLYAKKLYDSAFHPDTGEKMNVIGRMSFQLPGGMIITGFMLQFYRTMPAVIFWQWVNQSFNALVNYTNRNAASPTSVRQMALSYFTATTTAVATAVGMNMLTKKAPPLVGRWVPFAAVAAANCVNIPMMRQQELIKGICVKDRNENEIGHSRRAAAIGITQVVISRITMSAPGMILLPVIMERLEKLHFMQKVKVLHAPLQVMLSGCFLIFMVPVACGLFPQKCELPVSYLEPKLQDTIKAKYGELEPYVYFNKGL
UniProt Q14493, whole entry, looked up: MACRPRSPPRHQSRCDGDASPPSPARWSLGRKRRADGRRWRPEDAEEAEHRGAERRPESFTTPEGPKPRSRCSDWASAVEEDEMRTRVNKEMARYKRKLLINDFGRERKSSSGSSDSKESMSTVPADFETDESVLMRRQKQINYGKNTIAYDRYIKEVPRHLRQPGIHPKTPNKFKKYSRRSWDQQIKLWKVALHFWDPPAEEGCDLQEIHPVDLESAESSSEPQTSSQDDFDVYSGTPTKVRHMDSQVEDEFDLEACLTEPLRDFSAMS
UniProt P34896: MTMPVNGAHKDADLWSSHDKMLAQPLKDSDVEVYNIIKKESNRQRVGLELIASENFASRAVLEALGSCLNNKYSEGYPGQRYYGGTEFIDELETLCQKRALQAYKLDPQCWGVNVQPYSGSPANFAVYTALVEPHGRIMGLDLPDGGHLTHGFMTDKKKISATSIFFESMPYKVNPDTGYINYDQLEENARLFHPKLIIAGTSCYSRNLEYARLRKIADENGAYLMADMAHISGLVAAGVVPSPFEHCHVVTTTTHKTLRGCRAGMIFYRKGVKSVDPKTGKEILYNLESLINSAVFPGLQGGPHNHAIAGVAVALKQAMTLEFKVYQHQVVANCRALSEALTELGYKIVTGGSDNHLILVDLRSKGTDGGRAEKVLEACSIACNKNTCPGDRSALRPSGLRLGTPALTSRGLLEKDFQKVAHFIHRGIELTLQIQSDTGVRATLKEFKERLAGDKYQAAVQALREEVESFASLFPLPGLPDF
UniProt Q9BWJ5: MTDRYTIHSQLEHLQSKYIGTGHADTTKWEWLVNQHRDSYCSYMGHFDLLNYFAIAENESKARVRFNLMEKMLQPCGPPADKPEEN
UniProt Q9Y2K2: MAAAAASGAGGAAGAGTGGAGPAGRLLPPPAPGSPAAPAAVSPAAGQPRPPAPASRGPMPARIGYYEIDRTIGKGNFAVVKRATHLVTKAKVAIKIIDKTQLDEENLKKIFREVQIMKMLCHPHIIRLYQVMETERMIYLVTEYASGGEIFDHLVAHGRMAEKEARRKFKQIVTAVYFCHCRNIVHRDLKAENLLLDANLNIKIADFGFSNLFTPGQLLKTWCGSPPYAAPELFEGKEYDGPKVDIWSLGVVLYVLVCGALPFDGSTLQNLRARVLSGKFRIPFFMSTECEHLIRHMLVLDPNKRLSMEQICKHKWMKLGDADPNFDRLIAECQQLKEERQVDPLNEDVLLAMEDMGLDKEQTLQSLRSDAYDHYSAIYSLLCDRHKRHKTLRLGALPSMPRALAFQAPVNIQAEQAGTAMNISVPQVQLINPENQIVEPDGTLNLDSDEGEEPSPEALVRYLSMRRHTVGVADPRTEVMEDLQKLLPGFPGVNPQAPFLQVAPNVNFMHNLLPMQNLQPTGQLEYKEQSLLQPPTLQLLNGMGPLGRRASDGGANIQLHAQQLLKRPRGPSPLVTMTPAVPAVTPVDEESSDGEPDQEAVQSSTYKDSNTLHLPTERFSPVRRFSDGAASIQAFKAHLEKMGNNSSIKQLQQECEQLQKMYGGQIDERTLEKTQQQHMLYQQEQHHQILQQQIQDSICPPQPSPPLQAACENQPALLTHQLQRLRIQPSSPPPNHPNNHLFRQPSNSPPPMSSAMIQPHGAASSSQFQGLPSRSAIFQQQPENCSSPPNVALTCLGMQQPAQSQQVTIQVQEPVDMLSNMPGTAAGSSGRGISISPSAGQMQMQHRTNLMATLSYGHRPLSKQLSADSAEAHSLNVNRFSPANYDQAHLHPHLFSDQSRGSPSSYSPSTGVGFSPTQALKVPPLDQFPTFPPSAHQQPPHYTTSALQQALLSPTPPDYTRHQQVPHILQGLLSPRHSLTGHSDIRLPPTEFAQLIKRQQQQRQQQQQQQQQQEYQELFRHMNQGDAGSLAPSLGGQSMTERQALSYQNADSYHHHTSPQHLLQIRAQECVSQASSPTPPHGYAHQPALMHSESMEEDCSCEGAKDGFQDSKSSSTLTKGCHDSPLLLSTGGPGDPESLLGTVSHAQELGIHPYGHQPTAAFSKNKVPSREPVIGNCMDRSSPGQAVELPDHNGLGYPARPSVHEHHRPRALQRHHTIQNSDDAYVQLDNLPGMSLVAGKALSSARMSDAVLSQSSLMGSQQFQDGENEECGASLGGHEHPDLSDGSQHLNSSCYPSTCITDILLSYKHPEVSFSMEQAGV

How the values were obtained:
Assay in all cases: log2 fold change, soluble protein after heating vs DMSO (PISA); higher = thermal stabilisation; K562 lysate, 10 uM; active = over 0.2 and 3.5 SD of the protein, either way, in both replicates (recomputed)
[1] = compound: C1=CC=C(C=C1)[C@H](COC2=CC3=C(C=C2)NC(=O)N3)NC(=O)C4=CC=CN(C4=O)CC5=CC(=C(C=C5)F)F
How it was run: (§1)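 Quantification was by TMTpro 16plex LC-MS/MS with equalised channel sums, applied to the supernatant after 21,000xg for 90 min. Samples were crude K562 extract at 1 mg/mL protein in PBS pH 7.4 with 1 mM MgCl2, treated with 10 μM compound for 30 min, heated for 3 min across 48°C-58°C, pooled and brought to 0.5% NP-40 at 4°C. Values are log-two fold changes in thermal stability relative to solvent controls, from duplicates.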

[2] = compound: CC1=C(SC2=C1C(=N[C@H](C3=NN=C(N32)C)CC(=O)N)C4=CC=C(C=C4)Cl)C
How it was run: as §1

[3] = compound: CC1=C2C(=CC=C1)N=C(N(C2=O)C3=CC=CC=C3C)CN4C=NC5=C(N=CN=C54)N
How it was run: as §1

[4] = compound: Cc1sc2c(c1C)C(c1ccc(Cl)cc1)=N[C@@H](CC(=O)OC(C)(C)C)c1nnc(C)n1-2
How it was run: as §1

[5] = compound: c1ccc([C@@H]2C[C@H]2NC2CCNCC2)cc1
How it was run: as §1

Measured: log2 fold change

SETD1B (UniProt Q9UPS6)
inactive: [1] -0.089 | [2] 0.03 | [3] 0.017 | [4] -0.041 | [5] -0.054

SF1 isoform 6 (UniProt Q15637)
inactive: [1] -0.007 | [2] 0.069 | [3] -0.091 | [4] 0.122 | [5] -0.071

SLC1A5 (UniProt Q15758)
inactive: [1] 0.031 | [2] -0.017 | [3] -0.014 | [4] -0.049 | [5] -0.071

SLC1A4 (UniProt P43007)
inactive: [1] 0.03 | [2] -0.052 | [3] 0.01 | [4] -0.011 | [5] -0.051

SERPINB9 (UniProt P50453)
inactive: [1] -0.007 | [2] 0.001 | [3] -0.001 | [4] 0.002 | [5] -0.011

SLC19A1 (UniProt P41440)
inactive: [1] 0.017 | [2] -0.022 | [3] -0.056 | [4] -0.12 | [5] -0.176

SERPINF1 (UniProt P36955)
inactive: [1] 0.037 | [2] 0.112 | [3] 0.025 | [4] -0.026 | [5] 0.013

SH3BGRL2 (UniProt Q9UJC5)
inactive: [1] 0.048 | [2] 0.085 | [3] -0.027 | [4] -0.001 | [5] 0.083

SHTN1 (UniProt A0MZ66)
inactive: [1] -0.001 | [2] 0.041 | [3] -0.002 | [4] -0.026 | [5] -0.015

SIL1 (UniProt Q9H173)
inactive: [1] 0.06 | [2] 0.079 | [3] -0.004 | [4] -0.001 | [5] -0.043

SGTB (UniProt Q96EQ0)
inactive: [1] -0.001 | [2] -0.059 | [3] 0.008 | [4] -0.046 | [5] 0.065

SHOC2 (UniProt Q9UQ13)
inactive: [1] 0.006 | [2] 0.02 | [3] -0.019 | [4] -0.048 | [5] -0.082

SFXN2 (UniProt Q96NB2)
inactive: [1] -0.021 | [2] -0.02 | [3] 0.022 | [4] 0.006 | [5] -0.039

SLBP (UniProt Q14493)
inactive: [1] 0.044 | [2] 0.024 | [3] 0.056 | [4] 0.061 | [5] 0.036

SH3BP5 (UniProt O60239)
inactive: [1] 0.035 | [2] -0.045 | [3] -0.043 | [4] -0.032 | [5] 0.013

SERGEF (UniProt Q9UGK8)
inactive: [1] 0.091 | [2] 0.058 | [3] -0.146 | [4] -0.034 | [5] 0.029

SERINC3 (UniProt Q13530)
inactive: [1] 0.109 | [2] -0.016 | [3] 0.028 | [4] -0.056 | [5] -0.175

SHMT1 (UniProt P34896)
inactive: [1] 0 | [2] -0.007 | [3] -0.011 | [4] -0.014 | [5] -0.047

SFSWAP isoform 2 (UniProt Q12872)
inactive: [1] 0.013 | [2] -0.068 | [3] 0.036 | [4] 0.002 | [5] 0.012

2 neighbouring entries already listed, quoted:
SLBP (UniProt Q14493)
inactive: [1] 0.044 | [2] 0.024 | [3] 0.056 | [4] 0.061 | [5] 0.036

SH3BP5 (UniProt O60239)
inactive: [1] 0.035 | [2] -0.045 | [3] -0.043 | [4] -0.032 | [5] 0.013

Carrying on:

SH3BP2 isoform 4 (UniProt P78314)
inactive: [1] -0.05 | [2] 0.211 | [3] -0.124 | [4] 0.035 | [5] -0.021

SIDT2 isoform 2 (UniProt Q8NBJ9)
inactive: [1] 0.038 | [2] 0.008 | [3] 0.016 | [4] 0.028 | [5] -0.008

SLC12A4 (UniProt Q9UP95)
inactive: [1] 0.1 | [2] 0.048 | [3] -0.078 | [4] 0.036 | [5] 0.054

SF3B5 (UniProt Q9BWJ5)
inactive: [1] 0.024 | [2] -0.034 | [3] 0.006 | [4] -0.031 | [5] 0.138

SIK3 (UniProt Q9Y2K2)
inactive: [4] -0.196 | [5] -0.134
